Experimental data published in article PMC7856738.

By UniProt entry, the sequences of proteins in these tests, tags left out.
UniProt O43255: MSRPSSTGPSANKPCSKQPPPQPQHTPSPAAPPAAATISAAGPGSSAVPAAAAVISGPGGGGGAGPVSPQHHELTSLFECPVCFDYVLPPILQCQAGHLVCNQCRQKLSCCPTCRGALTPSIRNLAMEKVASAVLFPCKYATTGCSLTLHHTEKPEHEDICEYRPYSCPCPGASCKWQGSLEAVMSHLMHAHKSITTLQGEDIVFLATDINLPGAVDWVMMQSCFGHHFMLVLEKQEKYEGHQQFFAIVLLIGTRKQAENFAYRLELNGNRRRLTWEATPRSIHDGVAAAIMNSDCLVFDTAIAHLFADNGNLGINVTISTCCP
UniProt Q9Y5S2: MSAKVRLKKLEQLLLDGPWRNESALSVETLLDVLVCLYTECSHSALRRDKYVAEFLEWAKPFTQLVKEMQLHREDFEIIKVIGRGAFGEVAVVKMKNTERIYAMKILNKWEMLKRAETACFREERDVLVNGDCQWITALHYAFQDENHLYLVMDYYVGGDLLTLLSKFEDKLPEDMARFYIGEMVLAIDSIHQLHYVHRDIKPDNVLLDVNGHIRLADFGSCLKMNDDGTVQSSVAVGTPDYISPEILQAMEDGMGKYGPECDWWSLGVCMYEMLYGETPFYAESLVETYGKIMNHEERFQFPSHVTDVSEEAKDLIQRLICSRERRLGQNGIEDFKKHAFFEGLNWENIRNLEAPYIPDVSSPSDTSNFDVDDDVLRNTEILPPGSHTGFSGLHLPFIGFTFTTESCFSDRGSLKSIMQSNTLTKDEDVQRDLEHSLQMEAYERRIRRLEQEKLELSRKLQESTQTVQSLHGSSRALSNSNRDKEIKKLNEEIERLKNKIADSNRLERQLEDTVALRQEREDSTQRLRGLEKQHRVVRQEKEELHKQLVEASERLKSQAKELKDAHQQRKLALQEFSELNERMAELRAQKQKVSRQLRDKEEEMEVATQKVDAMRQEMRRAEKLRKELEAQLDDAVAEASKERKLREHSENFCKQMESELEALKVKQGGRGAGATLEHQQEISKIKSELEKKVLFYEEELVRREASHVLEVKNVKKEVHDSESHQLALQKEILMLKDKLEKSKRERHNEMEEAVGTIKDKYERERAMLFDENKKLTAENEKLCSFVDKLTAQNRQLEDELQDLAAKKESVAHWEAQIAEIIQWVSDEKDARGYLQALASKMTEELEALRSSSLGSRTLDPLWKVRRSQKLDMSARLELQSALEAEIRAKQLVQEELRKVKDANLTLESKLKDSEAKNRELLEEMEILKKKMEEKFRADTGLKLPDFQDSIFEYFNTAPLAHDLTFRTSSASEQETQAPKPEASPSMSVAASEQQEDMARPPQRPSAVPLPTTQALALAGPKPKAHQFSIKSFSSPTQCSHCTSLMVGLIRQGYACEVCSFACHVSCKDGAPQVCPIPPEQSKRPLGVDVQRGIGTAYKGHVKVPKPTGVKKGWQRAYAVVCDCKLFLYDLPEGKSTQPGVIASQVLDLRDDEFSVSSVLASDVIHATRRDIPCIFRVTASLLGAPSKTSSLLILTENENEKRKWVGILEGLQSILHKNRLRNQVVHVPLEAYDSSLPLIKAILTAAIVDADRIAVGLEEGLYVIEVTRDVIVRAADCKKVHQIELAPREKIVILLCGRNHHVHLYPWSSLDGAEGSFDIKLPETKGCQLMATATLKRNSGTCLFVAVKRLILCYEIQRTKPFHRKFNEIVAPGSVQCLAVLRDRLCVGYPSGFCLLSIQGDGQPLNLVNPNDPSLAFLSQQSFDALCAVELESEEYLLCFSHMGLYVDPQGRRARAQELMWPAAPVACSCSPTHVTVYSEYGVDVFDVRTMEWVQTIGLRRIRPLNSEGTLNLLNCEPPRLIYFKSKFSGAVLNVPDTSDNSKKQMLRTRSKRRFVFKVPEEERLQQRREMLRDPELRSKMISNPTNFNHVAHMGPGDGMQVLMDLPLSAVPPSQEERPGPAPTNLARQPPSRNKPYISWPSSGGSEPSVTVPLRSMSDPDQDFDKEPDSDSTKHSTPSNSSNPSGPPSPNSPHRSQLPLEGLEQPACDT

Biological target: seven in absentia homolog 2 (Siah2), overexpressed from the full-length human siah2 plasmid (human) (UniProt O43255)
Assay: affinity purification with mass spectrometry; MKN45 cells transfected with siah2 overexpression plasmid or vector control, infected with H. pylori 26695 for 12 h at 200 MOI; whole cell lysates immunoprecipitated with Siah2 antibody, SDS-PAGE, Coomassie staining, bands cut, mass spectrometry

binding: binds
Substance: myotonic dystrophy kinase-related Cdc42-binding kinase β (MRCKβ), endogenous (from UniProt Q9Y5S2 1-1711) (enzyme)

Results are given in words; binding and its absence hold for the method and conditions named. Binding seen in cells or lysates may run through a third protein. Here binding means that the protein was enriched with, or labelled near, the bait; the list need not be complete.
